Measurements from publication PMC3164636.
No constants are given. Whether binding was seen depends on the method and setting. In cells and extracts the contact can be indirect. Some entries that bind do so weakly or less than the wild type.

Chains of the proteins cited; added tags and fusions are not shown. Residues count along the entry.
UniProt O97302, residues 20-1086: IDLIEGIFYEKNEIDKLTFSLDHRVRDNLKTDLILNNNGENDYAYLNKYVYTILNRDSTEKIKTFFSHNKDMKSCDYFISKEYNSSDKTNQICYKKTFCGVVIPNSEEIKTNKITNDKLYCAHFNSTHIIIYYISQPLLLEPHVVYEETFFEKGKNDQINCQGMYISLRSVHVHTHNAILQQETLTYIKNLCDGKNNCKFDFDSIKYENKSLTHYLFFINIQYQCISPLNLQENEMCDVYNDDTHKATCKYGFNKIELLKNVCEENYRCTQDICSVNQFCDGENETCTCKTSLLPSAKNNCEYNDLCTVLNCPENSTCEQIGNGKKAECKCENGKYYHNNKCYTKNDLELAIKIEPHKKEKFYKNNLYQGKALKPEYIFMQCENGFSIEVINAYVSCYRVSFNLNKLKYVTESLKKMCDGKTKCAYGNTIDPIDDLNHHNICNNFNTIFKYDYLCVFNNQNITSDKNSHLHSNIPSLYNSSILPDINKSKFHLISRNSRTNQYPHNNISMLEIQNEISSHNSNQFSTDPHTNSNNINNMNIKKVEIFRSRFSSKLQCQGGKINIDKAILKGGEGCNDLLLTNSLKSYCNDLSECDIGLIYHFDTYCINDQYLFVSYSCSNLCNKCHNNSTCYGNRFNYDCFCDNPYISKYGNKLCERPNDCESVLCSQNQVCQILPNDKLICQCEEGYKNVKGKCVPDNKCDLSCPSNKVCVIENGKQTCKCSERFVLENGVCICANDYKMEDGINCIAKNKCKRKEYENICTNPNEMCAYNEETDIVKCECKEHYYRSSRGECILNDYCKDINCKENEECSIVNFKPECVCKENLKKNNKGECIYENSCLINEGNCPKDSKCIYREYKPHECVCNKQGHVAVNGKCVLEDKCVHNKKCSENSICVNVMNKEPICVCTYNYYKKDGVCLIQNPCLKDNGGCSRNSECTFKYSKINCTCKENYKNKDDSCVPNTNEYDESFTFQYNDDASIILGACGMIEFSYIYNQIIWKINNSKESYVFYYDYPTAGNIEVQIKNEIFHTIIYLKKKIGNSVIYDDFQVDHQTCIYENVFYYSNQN
UniProt Q8IFM5, residues 25-526: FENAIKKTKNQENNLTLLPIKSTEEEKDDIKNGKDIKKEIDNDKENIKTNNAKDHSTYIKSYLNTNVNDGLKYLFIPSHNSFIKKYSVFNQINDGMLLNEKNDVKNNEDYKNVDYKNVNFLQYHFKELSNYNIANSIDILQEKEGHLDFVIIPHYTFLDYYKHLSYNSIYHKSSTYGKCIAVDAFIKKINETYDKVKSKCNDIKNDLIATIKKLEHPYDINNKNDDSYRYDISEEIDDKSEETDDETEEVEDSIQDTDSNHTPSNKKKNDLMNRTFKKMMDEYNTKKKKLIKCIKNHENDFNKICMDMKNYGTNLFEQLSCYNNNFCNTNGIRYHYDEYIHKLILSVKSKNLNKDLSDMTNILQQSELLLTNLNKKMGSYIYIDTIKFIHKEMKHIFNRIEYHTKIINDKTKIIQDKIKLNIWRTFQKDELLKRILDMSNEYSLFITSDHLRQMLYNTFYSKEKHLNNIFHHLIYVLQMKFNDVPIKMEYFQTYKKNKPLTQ

What was measured:
[1] = target: PfRiprHA, HA-tagged P. falciparum Rh5 interacting protein (Plasmodium falciparum (3D7RiprHA line)) (UniProt O97302); assay: co-IP; proteins solubilised from saponin pellets of 3D7RiprHA schizonts (2% n-Dodecyl-N,N-Dimethylamine-N-Oxide in PBS); precipitation with anti-HA antibody beads; blots with monoclonal anti-PfRh5 or rabbit anti-PfRipr/3; 3D7 as control
[2] = target: PfRh5, full-length mature protein (approximately 63 kDa) (Plasmodium falciparum (endogenous in the 3D7RiprHA line)) (UniProt Q8IFM5); assay: co-IP; proteins solubilised from saponin pellets of 3D7RiprHA schizonts; precipitation with monoclonal anti-PfRh5 antibody; blots with anti-HA and anti-PfRh2a/b

| Substance | binding [1] | binding [2] |
| --- | --- | --- |
| PfRh5, full-length mature protein (approximately 63 kDa) (from UniProt Q8IFM5 25-526) | binds | – |
| PfRiprHA, HA-tagged P. falciparum Rh5 interacting protein (from UniProt O97302 20-1086) | – | binds |
